# Reference: PMC7862700
# By UniProt entry, the sequences of proteins in these tests, tags left out. Where a name states a change or a piece, a line headed by the entry shows the natural chain unless it says otherwise.
# UniProt O43186: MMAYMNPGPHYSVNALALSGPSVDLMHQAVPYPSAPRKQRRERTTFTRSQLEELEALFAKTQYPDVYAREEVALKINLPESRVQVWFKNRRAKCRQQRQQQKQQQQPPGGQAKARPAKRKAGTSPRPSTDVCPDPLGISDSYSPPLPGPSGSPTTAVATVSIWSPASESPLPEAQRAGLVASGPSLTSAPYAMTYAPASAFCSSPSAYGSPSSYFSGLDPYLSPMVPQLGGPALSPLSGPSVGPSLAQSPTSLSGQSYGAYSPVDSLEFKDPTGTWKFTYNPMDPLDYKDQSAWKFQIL
# Only a part is listed here, and it is no random draw. At the low end of the ranking the order means little.
# Experiments:
# CRX = CRX (UniProt O43186); experiment: DAPPL (digital affinity profiling via proximity ligation, sequencing); settings: 10 mM Tris-HCl pH 7.5, 50 mM NaCl, 1 mM DTT, 4% glycerol, room temperature, 30 min; GST-TFs on glutathione beads, 16-mer random dsDNA library, 0.1% …; high values mean tight binding; double strand, one strand shown; scale: fold enrichment (6-mer frequency, TF over GST control)
# ELF5 = target: T1, ELF5 (UniProt Q9UKW6-2); experiment: as above; settings: 10 mM Tris-HCl pH 7.5, 50 mM NaCl, 1 mM DTT, 4% glycerol, room temperature, 30 min; GST-TFs on glutathione beads, 16-mer random dsDNA library, 0.1% …; high values mean tight binding; double strand, one strand shown; scale: fold enrichment (6-mer frequency, TF over GST control)
# T1 sequence: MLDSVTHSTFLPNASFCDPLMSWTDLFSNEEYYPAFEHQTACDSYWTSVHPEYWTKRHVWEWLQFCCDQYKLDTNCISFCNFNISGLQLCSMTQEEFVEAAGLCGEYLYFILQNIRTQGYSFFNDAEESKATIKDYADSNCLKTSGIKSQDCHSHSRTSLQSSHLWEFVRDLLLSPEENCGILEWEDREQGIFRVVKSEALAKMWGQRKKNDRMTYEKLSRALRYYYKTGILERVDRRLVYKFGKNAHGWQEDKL
Sequence,binding signal (CRX),binding signal (ELF5)
AAAGTT,1.22,
CCGCCA,1.02,
GTAATT,1.59,
CTGTTC,1.07,
GTAGCA,0.795,
ACCACA,0.814,
CCGGCC,0.686,
TTGCTG,1.26,
CCGCAG,0.907,
GTTGTT,0.939,
ACCCCA,0.927,
TTTGGA,1.48,
ACACAA,0.955,
AGTTTC,0.945,
TGTCGC,0.668,
TTCCAC,1.26,
ATATAA,1.68,
CCCCCC,0.951,
TTGATC,1.71,
AAAGTA,1.35,
TTCATT,1.15,
CGTCAC,0.793,
GCCCGC,0.849,
AAATAA,1.71,

Sequence,binding signal (CRX),binding signal (ELF5)
ACCTGA,0.96,
AGGACC,0.809,
TCAAAC,1.14,
TGATGA,1.24,
GCGACC,0.771,
CCTTAG,1.28,
GTTATG,0.891,
CAAACT,0.952,
GAAGTA,0.894,
GGAAGA,0.607,
CACAAG,1.01,
CGTACA,0.862,
ATAAGA,1.97,
TCTATT,1.37,
AACACT,1.14,
AACGAT,1.38,
CATTAT,1.65,
GGTCTA,1.01,
CCGCCG,0.829,
AGTACA,0.847,
CAGCCC,0.879,
TGATCG,1.21,
AAGGCT,1.43,
CACTCC,0.935,

# Another view of some results above:
Sequence | binding signal (CRX) | binding signal (ELF5)
ACCACA | 0.814 | 
TTGCTG | 1.26 | 
CCGCAG | 0.907 | 
GTTGTT | 0.939 | 
ACCCCA | 0.927 | 
TTTGGA | 1.48 | 
ACACAA | 0.955 | 
AGTTTC | 0.945 | 
TGTCGC | 0.668 | 
TTCCAC | 1.26 | 
CCCCCC | 0.951 | 
TTCATT | 1.15 | 
GCCCGC | 0.849 | 
AAATAA | 1.71 | 
AGGACC | 0.809 | 
TCAAAC | 1.14 | 
TGATGA | 1.24 | 
CCTTAG | 1.28 | 
CAAACT | 0.952 | 
GAAGTA | 0.894 | 
GGAAGA | 0.607 | 
CGTACA | 0.862 | 
ATAAGA | 1.97 | 
TCTATT | 1.37 | 
AACACT | 1.14 | 
AACGAT | 1.38 | 
CATTAT | 1.65 | 
GGTCTA | 1.01 | 
CCGCCG | 0.829 | 
AGTACA | 0.847 | 
CAGCCC | 0.879 | 
TGATCG | 1.21 | 
AAGGCT | 1.43 | 
CACTCC | 0.935 | 

# Next part:

Sequence,binding signal (CRX),binding signal (ELF5)
ATACTC,1.37,
CCCCGT,0.961,
AACAAG,0.978,
CCTTCA,1.34,
AGCGAC,0.94,
ACGACA,0.864,
GTACGA,0.831,
AATGGT,1.1,
TCACCA,1.04,
TAACTT,1.56,
ACAGCC,0.803,
GTATAA,1.41,
TAAGTA,2.63,
AGATGC,0.976,
ATCTTG,1.54,
GTTACA,0.912,
GCCTGC,0.849,
CATCAT,0.955,
TGTCAT,0.87,
AACGGC,1.11,
AGGTCT,1.21,
ATTGCA,1.11,
ATGCTA,1.45,
TGTTTC,1.17,

Sequence,binding signal (CRX),binding signal (ELF5)
TTATTC,2.37,
CCTCAG,1.15,
CATCAC,0.86,
ATATCT,1.39,
TTCACA,0.958,
TAACGG,1.21,
AATCAG,1.42,1.04
GTACTA,1.12,1.13
ATTAGG,2.38,1.12
ACCCGA,1.1,
CGTCTG,0.872,0.933
TTCGGT,1,
TACAGC,1.07,1.07
AGCGCC,0.881,0.982
CGTAAC,0.901,1.12
ATTCTT,1.77,
ACAATT,1.13,1.32
CGCAAC,0.725,
CTATTG,1.14,
GATGCA,0.842,1.1
GTATGG,0.783,
CGGATG,0.793,
AGCTCA,1.45,0.988
TGACCC,1.13,1.4

Sequence,binding signal (CRX),binding signal (ELF5)
CACCGC,0.795,0.914
CCCATA,1.24,1.25
GCAGCC,0.726,0.852
CTGACG,0.823,1.09
GTGGCA,0.745,0.882
GTTCTC,1.28,1.25
GGATGT,0.828,
TACGGC,1.2,
ATGCTG,0.966,
GCCTGA,0.961,
TCGATA,1.24,0.976
TTAGGC,2.06,0.965
TGCCTC,1.06,
AACCGC,1.02,1
CAACGA,0.84,
AAATCG,1.26,0.999
ACACCT,0.872,0.986
GCCACA,0.727,0.9
CCTTGT,0.919,
CCGGGT,0.566,1.55
GCACTC,0.978,
GATTTG,1.78,1.05
GCACGC,0.783,0.994
AAGTTA,1.26,1.21
